From the GenesisPotency data set
About 3,300 (0.97%) of roughly 340,000 compounds were called active.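 Rule for the calls: active = maximum activity change below -70%; inconclusive = maximum activity change from -70% to -50%; inactive = maximum activity change above -50%.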 This is one part of the list.

The chains behind the UniProt entries cited, without tags or fusion partners. A line that says so, or that is headed by a name, gives the form on record, which may keep a tag or linker.
UniProt Q12809, as listed by the source: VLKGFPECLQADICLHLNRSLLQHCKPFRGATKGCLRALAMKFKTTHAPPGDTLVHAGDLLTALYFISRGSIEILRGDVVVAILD

The molecules below were run against Voltage-gated inwardly rectifying potassium channel KCNH2, Homo sapiens (UniProt Q12809) (assay: qHTS for Inhibitors of KCHN2 3.1: Mutant qHTS).
In the case of `CCCCNC(=O)O[C@@H]1C[C@@H]2CCN3C(=O)CCC[C@H]([C@H]1CC)[C@H]23`, the outcome is reported as “inactive”.
With `O=C1[C@H](Cc2ccccc2)NCC=CC[C@@H](c2ccc(Cl)cc2)N1Cc1ccc(Cl)cc1` the outcome was “inactive”.
